In PubChem BioAssay AID1487 (National Center for Advancing Translational Sciences (NCATS), 2009):
Values joined by “and” are separate entries in the source; they are usually repeats but may differ in a detail not shown here. Equal values may be shown once. The list shows a part of the results. Further columns of the screen follow, without active or inactive calls. Compounds called inactive in the main read-out are mostly missing here. The note in brackets gives the kind of curve behind each potency; many fits are weak.

Experiment: qHTS Assay for Modulators of Lamin A Splicing
Settings: HeLa LMNA splicing GFP/RFP minigene ratio, 48 h
How it was run: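 Read-out is the ratio of GFP to DsRed2 object intensity, acquired by 488 nm laser-scanning cytometry on HeLa lamin A-EGFP minigene reporter cells. Compound incubation 48 hrs at 37 °C in Opti-MEM with 2% FBS; DMSO 0.5% final.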

[1] = measured here: RFP viability control channel
[2] = measured here: GFP splicing reporter channel

Row | SMILES | AC50 [1] | AC50 [2]
1 | O=C(/C=C/c1ccc2c(c1)OCO2)NCCCN1CCOCC1 | 35.5 µM [rising, single point] | –
2 | Cc1ccc(C)c(OCC(=O)NCCNC(=O)COc2cc(C)ccc2C)c1 | 17.8 µM [rising, single point] | –
3 | CN(Cc1ccco1)c1ccnc(-c2cccc(NS(C)(=O)=O)c2)n1 | – | 12.6 µM [rising, single point]
4 | CCN(CC(=O)Nc1ccccc1OC)CC(=O)Nc1c(Cl)ccc(C)c1Cl | – | 0.141 µM [rising, full curve, poor fit]
5 | Cc1cccc(N2C(=O)N(CC(=O)C(C)(C)C)c3ccccc3S2(=O)=O)c1C | – | 0.891 µM [falling, full curve, poor fit]
6 | CC1(C)Cc2c(sc3nnn(Cc4ccccc4)c(=O)c23)CO1 | 15.8 µM [rising, partial curve] | 11.2 µM [rising, partial curve]
7 | Nc1nc(O)c2ncn([C@H]3CC[C@@H](CO)O3)c2n1 | 0.0891 µM [falling, full curve, poor fit] | –
8 | COc1ccc(OCC(=O)NCc2ccc3c(c2)CCN3C(=O)c2ccccc2)cc1 | 17.8 µM [rising, single point] | –
9 | COc1ccccc1N1CCN(c2ncnc3c2cnn3-c2cc(Cl)ccc2C)CC1 | 20 µM [falling, partial curve, poor fit] | 35.5 µM [falling, single point]
10 | COc1ccccc1N1CCN(C(=O)c2ccc3[nH]c4c(c3c2)CCCC4)CC1 | 25.1 µM [rising, single point] | –
11 | Cc1nnc(SCc2cnc(-c3ccc(C(C)C)cc3)s2)n1C | 31.6 µM [rising, single point] | –
12 | CC(C)C(=O)NC(c1ccc([N+](=O)[O-])cc1)c1c(O)ccc2ccccc12 (centres undefined) | 14.1 µM [falling, partial curve] | 35.5 µM [falling, single point]
13 | CC(C)NC[C@@H](O)COc1ccc(COCCOC(C)C)cc1 | – | 0.447 µM [falling, single point]
14 | COc1ccc(OCc2ccc(-c3nc4ccccc4c(=O)n3N)o2)cc1 | – | 12.6 µM [rising, single point]
15 | O=C(NC[C@@H](O)CO)c1c(I)c(C(=O)NC[C@@H](O)CO)c(I)c(N(CCO)C(=O)CO)c1I | 0.02 µM [falling, full curve, poor fit] | 7.94 µM [rising, single point]
16 | Cc1nn2c(-c3ccncc3)ccnc2c1Br | 0.01 µM [falling, full curve, poor fit] | –
17 | Cc1ccc(N2CCN(c3ccc(NCc4nc5ccccc5n4C)cc3)CC2)cc1 | 15.8 µM [rising, single point] | –
18 | Cc1ccc(CSc2nc3ccc(NC(=O)COc4ccccc4)cc3s2)cc1 | 1.41 µM [falling, full curve, poor fit] | 20 µM [falling, partial curve, poor fit]
19 | CC(=O)c1cn(N(C)c2ncc(C(F)(F)F)cc2Cl)c(=O)[nH]c1=O | 10 µM [falling, partial curve] | –
20 | FC(F)(F)c1ccc(N=Cc2sc(N3CCOCC3)nc2-c2ccccc2)cc1 | 14.1 µM [rising, single point] | –
21 | CCOc1ccc(NC(=O)CSC2=Nc3ccccc3C3=NC(CCC(=O)NCc4ccccc4)C(=O)N23)cc1 (centres undefined) | 35.5 µM [falling, single point] | –
22 | Cc1cc(N/N=C/c2c(O)ccc3ccccc23)nc(-c2ccccc2O)n1 | 12.6 µM [rising, single point] | –
23 | CCNc1nc(NC(C)C)nc(SCCOC(=O)c2ccccc2)n1 | 35.5 µM [rising, single point] | 12.6 µM [rising, single point]
24 | Cc1ccc(CNC(=O)c2ccc3c(c2)nc(C)n3-c2cccc(F)c2)cc1 | 35.5 µM [falling, partial curve, poor fit] | 35.5 µM [falling, single point]
25 | O=C(Nc1nccs1)c1ccc(-c2ccc([N+](=O)[O-])cc2)o1 | 6.31 µM [rising, partial curve, poor fit] | 5.62 µM [rising, partial curve, poor fit]
26 | COc1ccc2ccccc2c1CN1CCN(C(=O)c2ccccc2)CC1 | 22.4 µM [rising, single point] | 12.6 µM [rising, single point]
27 | Cc1ccc(S(=O)(=O)NC(N)=NCCc2ccc(Cl)cc2)cc1C | 22.4 µM [rising, single point] | 31.6 µM [rising, single point]

Row | SMILES | AC50 [1] | AC50 [2]
28 | CCOc1cc(Br)ccc1S(=O)(=O)NCc1ccccc1 | 22.4 µM [rising, single point] | 22.4 µM [rising, single point]
29 | CCCCCNC(=O)c1cccnc1SCC(=O)Nc1ccccc1OC | 14.1 µM [rising, single point] | –
30 | COc1ccc2[nH]cc(CCNc3ncncc3-c3ccccc3OC)c2c1 | – | 7.94 µM [falling, partial curve]
31 | O=C(Nc1ccc(Br)cc1)c1ccc(F)c(S(=O)(=O)NCc2cccs2)c1 | 3.16 µM [rising, single point] | –
32 | CCOC(=O)N1CCN(C(=O)CN(c2cccc(C)c2)S(=O)(=O)c2ccccc2)CC1 | 6.31 µM [rising, single point] | 5.62 µM [rising, single point]
33 | CCN(c1ccccc1)S(=O)(=O)c1cc(C(=O)Nc2ccc(F)c(F)c2)ccc1F | 8.91 µM [rising, partial curve, poor fit] | 35.5 µM [rising, single point]
34 | S=C(NCCSCc1ccc(Cl)cc1)Nc1ccccc1 | 11.2 µM [falling, single point] | –
35 | Cc1ccccc1C(=O)Nc1ccc(OCc2cc(=O)n3cccc(C)c3n2)cc1 | – | 35.5 µM [rising, partial curve, poor fit]
36 | NC(=O)c1ccccc1NC(=O)Nc1cccc(Cl)c1Cl | 14.1 µM [rising, partial curve] | 3.98 µM [rising, full curve]
37 | CC1=CC(C)(C)N(S(=O)(=O)c2ccc(F)cc2)c2ccccc21 | 20 µM [rising, single point] | –
38 | Cn1ccnc1Sc1ccc(C(N)=O)cc1[N+](=O)[O-] | 0.562 µM [rising, full curve, poor fit] | –
39 | Cc1cc(C(=O)OCn2nnc3ccccc3c2=O)c(C)n1-c1ccccc1 | 31.6 µM [rising, single point] | –
40 | COC(=O)c1ccccc1NC(=O)CSc1nc2ccccc2nc1Cc1ccccc1OC | 0.708 µM [falling, full curve, poor fit] | –
41 | CS(=O)(=O)Nc1cccc(-c2ccc3ncnc(Nc4ccccc4)c3c2)c1 | 12.6 µM [falling, partial curve] | 12.6 µM [falling, partial curve]
42 | COc1cc(OC)cc(C(=O)Nc2nnc(NC(=S)Nc3ccccc3)s2)c1 | 0.0355 µM [falling, full curve, poor fit] | –
43 | COC(=O)C1=C(C)N(Cc2ccccc2)C(=O)N[C@H]1c1ccccc1 | 0.00631 µM [falling, full curve, poor fit] | 0.00447 µM [falling, full curve, poor fit]
44 | Cc1cc2c(N=O)c(NO)ccc2[nH]1 | 8.91 µM [falling, partial curve] | 12.6 µM [falling, single point]
45 | CC1CCN(C(=O)CCc2ccc(S(=O)(=O)NC(C)C)cc2)CC1 | – | 35.5 µM [rising, single point]
46 | CCOc1ccc(/C(O)=C/C(=O)C(=O)Nc2ccc(S(=O)(=O)NC(C)=O)cc2)cc1 | 0.708 µM [rising, single point] | –
47 | CCOC(=O)C(=CNc1ccccc1N1CCOCC1)C(=O)OCC | 1 µM [falling, partial curve, poor fit] | –
48 | CC(=O)Nc1cc(OC(C)=O)c2nonc2c1OC(C)=O | 8.91 µM [falling, partial curve] | 11.2 µM [falling, partial curve]
49 | O=C(NCCNS(=O)(=O)c1ccccc1Cl)c1cc(OCC(F)(F)F)ccc1OCC(F)(F)F | – | 4.47 µM [rising, partial curve]
50 | COc1ccc(NC(=O)CSc2nc3ccccc3n2-c2ccccc2)c([N+](=O)[O-])c1 | 12.6 µM [rising, partial curve] | –
51 | COc1ccc(CCN2CCC(Nc3nc4ccccc4n3Cc3ccc(F)cc3)CC2)cc1 | 7.94 µM [falling, single point] and 35.5 µM [falling, single point] and 12.6 µM [rising, partial curve] | 4.47 µM [falling, partial curve, poor fit] and 22.4 µM [falling, partial curve, poor fit]
52 | CCCCOC(=O)C1=C(C)Nc2ncnn2C1c1cccc(OC)c1 (centres undefined) | 12.6 µM [rising, partial curve] | 10 µM [rising, partial curve, poor fit]
53 | CCCCn1c(-c2csc3c2CCC(C)C3)n[nH]c1=S (centres undefined) | 12.6 µM [rising, partial curve] | 4.47 µM [rising, partial curve]

Grouped by structure, those above containing a furan ring, fused or not
Row | SMILES | AC50 [1] | AC50 [2]
3 | CN(Cc1ccco1)c1ccnc(-c2cccc(NS(C)(=O)=O)c2)n1 | – | 12.6 µM [rising, single point]
14 | COc1ccc(OCc2ccc(-c3nc4ccccc4c(=O)n3N)o2)cc1 | – | 12.6 µM [rising, single point]
25 | O=C(Nc1nccs1)c1ccc(-c2ccc([N+](=O)[O-])cc2)o1 | 6.31 µM [rising, partial curve, poor fit] | 5.62 µM [rising, partial curve, poor fit]
